Experimental data published in PubChem BioAssay AID2685 (National Center for Advancing Translational Sciences (NCATS), 2010).
This is one part of the list. The main result of the screen is listed elsewhere. These columns were measured beside it and carry no call. The list favours compounds with an active or inconclusive main result. Potencies come from curve fits of mixed quality, noted in brackets.

Experiment: qHTS Assay for Lipid Storage Modulators in Drosophila S3 Cells;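 for cell number change: cells counted by Cell Tracker Red CMTPX staining in the red channel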
Conditions: BODIPY lipid droplet fluorescence, 18-24 h; for cell number change: measured here: cell count max response, cells fed with added oleic acid
Outline: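 Drosophila S3 cells loaded with oleic acid (400 uM, as added) and compounds at several concentrations; lipid droplets imaged by 488-nm laser-scanning cytometry, 500–530 nm intensity and object ratio to cell channel. Percent activity normalized to 20 uM Triacsin C.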

[1] = measured here: lipid fluorescence (Fed channel) AC50, cells fed with added oleic acid
[2] = measured here: cell number channel AC50, cells fed with added oleic acid

With `COC(=O)Nc1ccc(NC(C)=O)cc1` the cell number change was -6.85% and the AC50 [1] was 29.1 µM [falling, single point].

With `CCOc1ccc(NS(=O)(=O)c2ccc(NS(=O)(=O)c3ccccc3)cc2)cc1` the cell number change was -1.32% and the AC50 [1] was 1.46 µM [rising, full curve, poor fit].

With `CC1(C)CC(=O)C2=C(C1)N(c1ccc(Cl)cc1)C(=O)C2(O)C(F)(F)F` (configuration not stated) the cell number change was -12.5% and the AC50 [1] was 0.461 µM [falling, single point].

With `CCOC(=O)C(=O)N=Nc1c(O)[nH]c2ccccc12` the cell number change was 2.7% and the AC50 [1] was 0.116 µM [falling, single point].

In the case of `CCOc1ccccc1CSc1nc2ccccc2[nH]1`, the cell number change is reported as 18.6% and the AC50 [1] is reported as 11.6 µM [rising, single point].

With `C/C(=N/NC(=O)c1ccoc1C)c1ccc(NC(=O)c2ccncc2)cc1` the cell number change was 32.9%, the AC50 [2] was 2.06 µM [rising, full curve, poor fit] and the AC50 [1] was 29.1 µM [rising, partial curve, poor fit].

In the case of `CC1(C)CCC(=O)N2CC[C@H]3C[C@H](OC(=O)Nc4ccc(Br)cc4)C[C@@H]1[C@H]32`, the cell number change is reported as -8.98% and the AC50 [1] is reported as 0.82 µM [falling, partial curve, poor fit].

For `S=C(c1ccccc1)N1CCCC1`, the cell number change was 8.99% and the AC50 [1] was 0.651 µM [rising, full curve, poor fit].

For `O=S(=O)(c1ccc(SCc2ccccc2)nc1)N1CCCCC1`, the cell number change was -4.82% and the AC50 [2] was 4.61 µM [falling, partial curve].

For `CCS(=O)(=O)c1nc(S(=O)(=O)c2ccc(C)cc2)c(N2CCOCC2)s1`, the cell number change was 2.85% and the AC50 [1] was 0.58 µM [falling, single point].

In the case of `CC1(NC(=O)C2CCCCC2)CCS(=O)(=O)C1` (configuration not stated), the cell number change is reported as -31.1%.

For `CN(CCc1ccccn1)C(=O)c1ccc(OC2CCN(Cc3ccccn3)CC2)cc1`, the cell number change was -2.55% and the AC50 [2] was 6.51 µM [rising, single point].

In the case of `O=C(NCC1CCCO1)C1C2C=CC3(CN(Cc4cccs4)C(=O)C13)O2` (configuration not stated), the cell number change is reported as -1.7% and the AC50 [1] is reported as 29.1 µM [falling, single point].

For `COc1ccccc1C1C(C#N)=C(N)N(N(C)C)C2=C1C(=O)CC(C)(C)C2` (configuration not stated), the cell number change was -8.33% and the AC50 [1] was 29.1 µM [rising, single point].

With `CCOC(=O)c1cccc(NC(=O)CSc2nnnn2CC)c1` the cell number change was -13.3% and the AC50 [2] was 6.51 µM [rising, single point].

For `N#CC(C(=O)OC1CCCCC1)c1nc2ccccc2nc1N1CCCCC1` (configuration not stated), the cell number change was 8.27%.

With `COc1ccc(Cl)cc1NC(=O)Cn1nnc(C(=O)NCc2ccc3c(c2)OCO3)c1N` the cell number change was 8.36% and the AC50 [1] was 7.31 µM [falling, partial curve, poor fit].

With `O=C(NCc1ccco1)c1cccc(S(=O)(=O)N2CCCC2)c1` the cell number change was 0.952% and the AC50 [1] was 29.1 µM [rising, partial curve, poor fit].

In the case of `CCCc1c(C(=O)N/N=C/C(C)=C/c2ccco2)nnn1-c1nonc1N`, the cell number change is reported as 5.67% and the AC50 [1] is reported as 29.1 µM [falling, single point].

With `O=C(NCc1ccc(F)cc1)C1(S(=O)(=O)c2ccc(Cl)cc2)CC1` the cell number change was -6.67% and the AC50 [1] was 29.1 µM [rising, single point].

With `CC(C)(C)c1ccc(OCC(=O)N(Cc2cccs2)C2CCS(=O)(=O)C2)cc1` (configuration not stated) the cell number change was -3.46% and the AC50 [1] was 29.1 µM [falling, single point].

With `CCCOc1ccc(NC2=CC(=O)CC(C)(C)C2)cc1` the cell number change was 49.5%, the AC50 [2] was 7.31 µM [rising, partial curve, poor fit] and the AC50 [1] was 14.6 µM [rising, partial curve].

`COc1ccccc1N1CCN(C2CC(=O)N(c3cccc(Br)c3)C2=O)CC1` (configuration not stated) showed a cell number change of -8.47%.

For `CCOC(=O)Nc1ccc(C(N)=O)cc1`, the cell number change was 2.23% and the AC50 [2] was 0.103 µM [falling, full curve, poor fit].

For `Cc1noc(C)c1S(=O)(=O)N(CC(=O)Nc1ccc2c(c1)OCCO2)c1ccc(C(C)C)cc1`, the cell number change was 4.09% and the AC50 [1] was 25.9 µM [falling, single point].

With `COc1ccc(NS(=O)(=O)c2ccc(C)c(C(=O)NNC(=O)c3ccccc3O)c2)cc1` the cell number change was -11.2% and the AC50 [1] was 0.164 µM [rising, full curve, poor fit].

With `CCc1ccc(O)c(N=Cc2cccc(C)c2O)c1` the cell number change was -16.7%, the AC50 [2] was 0.116 µM [falling, full curve, poor fit] and the AC50 [1] was 0.651 µM [falling, full curve].

For `COc1ccc(NC(=O)NNC(=O)C(C)Oc2ccc3ccccc3c2)cc1` (configuration not stated), the cell number change was 18.8% and the AC50 [1] was 13 µM [rising, partial curve, poor fit].

For `O=S(=O)(NN1CCOCC1)c1ccc(Br)s1`, the cell number change was 2.7% and the AC50 [1] was 29.1 µM [falling, single point].

For `O=C(CNC(=O)c1ccc(Br)o1)NCc1ccccc1Cl`, the cell number change was 16.4% and the AC50 [1] was 20.6 µM [rising, single point].

Work on `COc1ccc(OC)c(C(=O)COC(=O)c2cccnc2SC)c1` yielded a cell number change of -24.9%.

In the case of `O=C(Cc1ccc(Cl)cc1)Nc1ccc2oc(=O)ccc2c1`, the cell number change is reported as 12.2% and the AC50 [1] is reported as 1.84 µM [rising, partial curve].

For `O=C(Nc1ccc(NC(=S)NC(=O)c2ccccc2F)cc1)c1cccs1`, the AC50 [2] was 4.11 µM [rising, single point].

For `c1cc(-c2nsc(-c3ccncc3)n2)ccn1`, the cell number change was 20.3% and the AC50 [1] was 14.6 µM [rising, partial curve, poor fit].

For `CC1C/C(=N/NC(=O)c2cccs2)CC(C)(C)C1` (configuration not stated), the cell number change was 50.6%, the AC50 [2] was 29.1 µM [rising, single point] and the AC50 [1] was 0.82 µM [falling, single point].

In the case of `O=C(CCN1C(=O)C2C3CCC(C3)C2C1=O)OCC(=O)c1ccc(Br)cc1` (configuration not stated), the cell number change is reported as -14.4% and the AC50 [1] is reported as 13 µM [falling, single point].

In the case of `Cc1cc(Br)ccc1SCC(=O)OCC(=O)Nc1ncc(C(F)(F)F)cc1Cl`, the cell number change is reported as 12.8% and the AC50 [1] is reported as 6.51 µM [falling, single point].

With `CCCCN(C1CCS(=O)(=O)C1)S(=O)(=O)c1ccc(OC)cc1` (configuration not stated) the cell number change was -31% and the AC50 [2] was 29.1 µM [falling, single point].

For `CCOc1cccc(NC(=O)c2cccc(F)c2)c1`, the cell number change was 96.8% and the AC50 [2] was 0.731 µM [rising, single point].
